Data source: PubChem BioAssay AID1259254 (NCATS, 2017)

Assay: 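Genome-wide screen for genes that prevent DNA re-replication in cancer cells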 (primary screen)
Cell system: human HCT116 colorectal cancer cells
Knock-down reagent: single siRNA against human genes
Timing: 3 days
Read-out: 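Nuclei stained with Hoechst and imaged; cell-cycle phase assigned by DNA content; G2 share scaled per plate, non-targeting siRNA 0%, GMNN siRNA 100%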
Reading the numbers: G2 robust z-score: higher = more G2 cells, more excess DNA replication
Active means: 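An siRNA counts as active if its G2 robust z-score lies at least 5 MADs above the screen median; here such calls match roughly 38% of GMNN control or more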
In all, the deposit lists about 59,000 reagents; shown is an unselected part. Over the whole deposit, about 1,550 (2.6%) got an active call. 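G2 share is only a proxy for re-replication; each gene was hit by three separate siRNAs, and active genes were retested.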 Reagents against one gene are numbered here. Not all columns of the deposit are shown. Reagent sequences are not shown. Not stated in the record: the amount of reagent.

no.	Target gene	reagent no.	G2 robust z-score	activity call
1	HMHB1 (histocompatibility minor HB-1)	1	-0.0774	inactive
2	HMHB1 (histocompatibility minor HB-1)	2	1.58	inactive
3	HMHB1 (histocompatibility minor HB-1)	3	1.37	inactive
4	HTRA4 (HtrA serine peptidase 4)	1	0.0187	inactive
5	HTRA4 (HtrA serine peptidase 4)	2	0.875	inactive
6	HTRA4 (HtrA serine peptidase 4)	3	0.229	inactive
7	ZNF764 (zinc finger protein 764)	1	-0.564	inactive
8	ZNF764 (zinc finger protein 764)	2	-0.286	inactive
9	ZNF764 (zinc finger protein 764)	3	1.9	inactive
10	LBR (lamin B receptor)	1	-0.0828	inactive
11	LBR (lamin B receptor)	2	1.92	inactive
12	LBR (lamin B receptor)	3	1.24	inactive
13	ZNF335 (zinc finger protein 335)	1	1.21	inactive
14	ZNF335 (zinc finger protein 335)	2	-1.53	inactive
15	ZNF335 (zinc finger protein 335)	3	0.916	inactive
16	LINC00460 (long independently transcribed non-coding RNA 460)	1	0.784	inactive
17	LINC00460 (long independently transcribed non-coding RNA 460)	2	0.111	inactive
18	LINC00460 (long independently transcribed non-coding RNA 460)	3	-1.08	inactive
19	NACA2 (nascent polypeptide associated complex subunit alpha 2)	1	4.2	inactive
20	NACA2 (nascent polypeptide associated complex subunit alpha 2)	2	0.8	inactive
21	NACA2 (nascent polypeptide associated complex subunit alpha 2)	3	-0.907	inactive
22	LIG4 (DNA ligase 4)	1	0.867	inactive
23	LIG4 (DNA ligase 4)	2	-0.253	inactive
24	LIG4 (DNA ligase 4)	3	-0.998	inactive
25	THBD (thrombomodulin)	1	-0.0944	inactive
26	THBD (thrombomodulin)	2	-0.265	inactive
27	THBD (thrombomodulin)	3	0.821	inactive
28	CCDC141 (coiled-coil domain containing 141)	1	-0.172	inactive
29	CCDC141 (coiled-coil domain containing 141)	2	2.58	inactive
30	CCDC141 (coiled-coil domain containing 141)	3	-0.0355	inactive
31	PPP1R3A (protein phosphatase 1 regulatory subunit 3A)	1	-0.665	inactive
32	PPP1R3A (protein phosphatase 1 regulatory subunit 3A)	2	-0.668	inactive
33	PPP1R3A (protein phosphatase 1 regulatory subunit 3A)	3	0.543	inactive
34	OR2A1 (olfactory receptor family 2 subfamily A member 1)	1	0.353	inactive
35	OR2A1 (olfactory receptor family 2 subfamily A member 1)	2	-0.562	inactive
36	OR2A1 (olfactory receptor family 2 subfamily A member 1)	3	1.29	inactive
37	MCFD2P1 (multiple coagulation factor deficiency 2 pseudogene 1)	1	9.32	active
38	MCFD2P1 (multiple coagulation factor deficiency 2 pseudogene 1)	2	0.757	inactive
39	MCFD2P1 (multiple coagulation factor deficiency 2 pseudogene 1)	3	0.904	inactive
40	FUT5 (fucosyltransferase 5)	1	-0.497	inactive
41	FUT5 (fucosyltransferase 5)	2	-1.55	inactive
42	FUT5 (fucosyltransferase 5)	3	-0.355	inactive
43	PPP1R15B (protein phosphatase 1 regulatory subunit 15B)	1	1.9	inactive
44	PPP1R15B (protein phosphatase 1 regulatory subunit 15B)	2	-0.377	inactive
45	PPP1R15B (protein phosphatase 1 regulatory subunit 15B)	3	2.85	inactive
46	CES1 (carboxylesterase 1)	1	0.467	inactive
47	CES1 (carboxylesterase 1)	2	-1.2	inactive
48	CES1 (carboxylesterase 1)	3	0.139	inactive
49	TAF7 (TATA-box binding protein associated factor 7)	1	2.39	inactive
50	TAF7 (TATA-box binding protein associated factor 7)	2	0.173	inactive
51	TAF7 (TATA-box binding protein associated factor 7)	3	-0.0384	inactive
52	PER2 (period circadian regulator 2)	1	-0.577	inactive
53	PER2 (period circadian regulator 2)	2	-0.259	inactive
54	PER2 (period circadian regulator 2)	3	-0.585	inactive
55	PEX19 (peroxisomal biogenesis factor 19)	1	0.241	inactive
56	PEX19 (peroxisomal biogenesis factor 19)	2	0.953	inactive
57	PEX19 (peroxisomal biogenesis factor 19)	3	-0.73	inactive
58	NAT8 (N-acetyltransferase 8 (putative))	1	1.54	inactive
59	NAT8 (N-acetyltransferase 8 (putative))	2	2.63	inactive
60	NAT8 (N-acetyltransferase 8 (putative))	3	-0.779	inactive
61	RHEBL1 (RHEB like 1)	1	-0.696	inactive
62	RHEBL1 (RHEB like 1)	2	0.672	inactive
63	RHEBL1 (RHEB like 1)	3	-0.0859	inactive
64	BIRC7 (baculoviral IAP repeat containing 7)	1	-1.07	inactive
65	BIRC7 (baculoviral IAP repeat containing 7)	2	0.617	inactive
66	BIRC7 (baculoviral IAP repeat containing 7)	3	1.16	inactive
67	PACSIN2 (protein kinase C and casein kinase substrate in neurons 2)	1	3.45	inactive
68	PACSIN2 (protein kinase C and casein kinase substrate in neurons 2)	2	0.0245	inactive
69	PACSIN2 (protein kinase C and casein kinase substrate in neurons 2)	3	0.349	inactive
